Some of the results follow.

Sequences of proteins named here, by UniProt entry; tags and fusion partners are left off. A change or cut given only in a name is not applied to a line headed by its entry.
UniProt Q9BQ65: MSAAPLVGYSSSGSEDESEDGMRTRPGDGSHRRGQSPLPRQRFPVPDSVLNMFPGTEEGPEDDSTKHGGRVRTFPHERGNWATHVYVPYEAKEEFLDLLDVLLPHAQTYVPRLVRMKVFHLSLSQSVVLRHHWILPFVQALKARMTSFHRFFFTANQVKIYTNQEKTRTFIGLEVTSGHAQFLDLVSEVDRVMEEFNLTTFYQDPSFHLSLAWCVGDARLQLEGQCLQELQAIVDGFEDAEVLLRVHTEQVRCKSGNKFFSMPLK
UniProt P61960, whole entry, looked up: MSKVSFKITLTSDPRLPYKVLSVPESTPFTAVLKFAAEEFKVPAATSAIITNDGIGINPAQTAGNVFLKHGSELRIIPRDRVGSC
UniProt Q9H347: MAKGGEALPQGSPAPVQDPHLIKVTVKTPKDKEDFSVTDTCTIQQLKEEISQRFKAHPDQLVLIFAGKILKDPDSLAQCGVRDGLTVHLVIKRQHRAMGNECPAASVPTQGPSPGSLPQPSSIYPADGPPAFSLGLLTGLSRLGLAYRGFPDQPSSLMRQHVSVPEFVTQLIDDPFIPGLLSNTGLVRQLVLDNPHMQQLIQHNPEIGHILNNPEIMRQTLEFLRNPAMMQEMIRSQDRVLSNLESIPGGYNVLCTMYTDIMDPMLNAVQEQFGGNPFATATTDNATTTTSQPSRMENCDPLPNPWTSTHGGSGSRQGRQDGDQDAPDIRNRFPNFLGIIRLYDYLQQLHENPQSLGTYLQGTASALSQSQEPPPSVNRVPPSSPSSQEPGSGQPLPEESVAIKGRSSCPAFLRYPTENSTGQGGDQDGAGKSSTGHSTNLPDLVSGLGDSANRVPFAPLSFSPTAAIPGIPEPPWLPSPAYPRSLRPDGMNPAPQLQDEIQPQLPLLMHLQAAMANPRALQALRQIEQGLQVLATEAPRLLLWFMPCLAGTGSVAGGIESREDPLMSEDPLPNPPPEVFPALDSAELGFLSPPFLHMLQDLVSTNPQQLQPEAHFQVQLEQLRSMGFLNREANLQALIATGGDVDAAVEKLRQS
UniProt Q68DE3: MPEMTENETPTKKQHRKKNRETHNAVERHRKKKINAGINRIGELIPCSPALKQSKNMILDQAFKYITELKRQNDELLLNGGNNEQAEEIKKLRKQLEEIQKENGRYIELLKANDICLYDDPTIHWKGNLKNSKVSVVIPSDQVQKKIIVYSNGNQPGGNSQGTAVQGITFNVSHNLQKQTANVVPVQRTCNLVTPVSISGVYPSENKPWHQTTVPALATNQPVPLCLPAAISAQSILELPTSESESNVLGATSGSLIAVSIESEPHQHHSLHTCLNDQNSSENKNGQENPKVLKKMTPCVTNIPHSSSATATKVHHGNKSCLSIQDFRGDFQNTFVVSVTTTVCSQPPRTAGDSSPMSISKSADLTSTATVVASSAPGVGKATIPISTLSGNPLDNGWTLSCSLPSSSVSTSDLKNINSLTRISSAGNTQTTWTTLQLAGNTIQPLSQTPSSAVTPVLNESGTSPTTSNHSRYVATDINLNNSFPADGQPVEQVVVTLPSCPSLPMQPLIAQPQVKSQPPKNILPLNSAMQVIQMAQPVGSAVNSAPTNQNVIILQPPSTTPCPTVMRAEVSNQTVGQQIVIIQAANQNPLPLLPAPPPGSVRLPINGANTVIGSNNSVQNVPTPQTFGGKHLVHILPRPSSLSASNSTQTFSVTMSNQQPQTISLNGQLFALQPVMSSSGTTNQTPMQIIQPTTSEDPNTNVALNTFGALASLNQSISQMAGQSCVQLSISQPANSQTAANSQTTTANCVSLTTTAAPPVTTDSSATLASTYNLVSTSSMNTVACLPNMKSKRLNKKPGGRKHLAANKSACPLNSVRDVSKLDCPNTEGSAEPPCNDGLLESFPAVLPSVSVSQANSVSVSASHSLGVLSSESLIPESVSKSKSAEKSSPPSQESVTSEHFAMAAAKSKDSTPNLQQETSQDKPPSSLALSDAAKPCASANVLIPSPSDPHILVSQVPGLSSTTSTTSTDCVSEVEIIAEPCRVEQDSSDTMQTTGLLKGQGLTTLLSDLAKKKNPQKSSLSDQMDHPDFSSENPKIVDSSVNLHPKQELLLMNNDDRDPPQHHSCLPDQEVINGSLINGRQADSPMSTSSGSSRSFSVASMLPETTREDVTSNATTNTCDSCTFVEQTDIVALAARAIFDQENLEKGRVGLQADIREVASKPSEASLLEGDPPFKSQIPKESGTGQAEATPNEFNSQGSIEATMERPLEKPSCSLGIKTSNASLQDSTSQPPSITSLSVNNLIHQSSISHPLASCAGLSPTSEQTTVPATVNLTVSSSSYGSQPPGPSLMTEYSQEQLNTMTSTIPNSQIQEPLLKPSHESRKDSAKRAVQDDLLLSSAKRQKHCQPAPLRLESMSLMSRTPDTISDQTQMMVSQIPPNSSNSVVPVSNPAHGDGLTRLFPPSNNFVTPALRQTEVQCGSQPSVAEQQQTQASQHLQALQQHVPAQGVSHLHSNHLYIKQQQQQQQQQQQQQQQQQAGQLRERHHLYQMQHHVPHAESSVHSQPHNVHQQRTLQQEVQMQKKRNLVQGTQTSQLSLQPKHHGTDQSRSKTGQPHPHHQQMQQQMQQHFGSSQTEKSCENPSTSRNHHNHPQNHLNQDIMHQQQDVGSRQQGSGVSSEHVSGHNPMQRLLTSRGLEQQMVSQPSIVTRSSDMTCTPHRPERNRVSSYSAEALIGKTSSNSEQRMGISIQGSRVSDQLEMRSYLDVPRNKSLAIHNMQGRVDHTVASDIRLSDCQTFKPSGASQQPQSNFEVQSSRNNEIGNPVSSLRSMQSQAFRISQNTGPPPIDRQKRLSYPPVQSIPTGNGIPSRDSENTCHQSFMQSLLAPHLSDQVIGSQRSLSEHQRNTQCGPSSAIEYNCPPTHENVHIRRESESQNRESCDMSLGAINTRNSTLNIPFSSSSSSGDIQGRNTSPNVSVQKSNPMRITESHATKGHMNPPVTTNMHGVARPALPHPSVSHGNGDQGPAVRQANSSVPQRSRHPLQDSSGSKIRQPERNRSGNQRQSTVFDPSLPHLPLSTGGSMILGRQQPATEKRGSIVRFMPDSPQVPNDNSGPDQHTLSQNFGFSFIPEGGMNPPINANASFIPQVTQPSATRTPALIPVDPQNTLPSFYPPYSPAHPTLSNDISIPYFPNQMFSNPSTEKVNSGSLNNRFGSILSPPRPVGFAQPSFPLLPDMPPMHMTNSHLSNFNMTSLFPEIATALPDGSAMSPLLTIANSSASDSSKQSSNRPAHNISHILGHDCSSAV
UniProt Q9BZM6: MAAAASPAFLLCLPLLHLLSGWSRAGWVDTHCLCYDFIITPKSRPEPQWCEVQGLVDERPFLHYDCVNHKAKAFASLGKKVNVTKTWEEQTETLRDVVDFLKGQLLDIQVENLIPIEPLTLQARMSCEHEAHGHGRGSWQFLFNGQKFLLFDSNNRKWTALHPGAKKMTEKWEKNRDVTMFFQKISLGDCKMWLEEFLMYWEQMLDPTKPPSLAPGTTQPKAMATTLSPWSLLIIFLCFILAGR
UniProt Q6PHR2: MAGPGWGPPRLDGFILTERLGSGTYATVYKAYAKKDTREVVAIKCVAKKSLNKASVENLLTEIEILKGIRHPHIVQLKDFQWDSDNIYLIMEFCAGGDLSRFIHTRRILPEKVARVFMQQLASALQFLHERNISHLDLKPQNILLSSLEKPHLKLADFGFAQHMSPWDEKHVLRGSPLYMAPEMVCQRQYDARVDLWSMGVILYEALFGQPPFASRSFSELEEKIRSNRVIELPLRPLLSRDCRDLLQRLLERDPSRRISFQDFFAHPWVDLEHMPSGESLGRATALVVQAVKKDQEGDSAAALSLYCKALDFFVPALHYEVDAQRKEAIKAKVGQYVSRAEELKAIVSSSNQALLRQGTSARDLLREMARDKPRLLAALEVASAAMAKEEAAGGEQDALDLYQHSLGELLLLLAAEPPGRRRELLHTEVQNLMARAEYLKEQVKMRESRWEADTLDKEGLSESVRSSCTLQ
UniProt O14957: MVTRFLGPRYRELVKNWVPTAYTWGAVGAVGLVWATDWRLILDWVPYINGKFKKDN
UniProt Q9Y5T5, whole entry, looked up: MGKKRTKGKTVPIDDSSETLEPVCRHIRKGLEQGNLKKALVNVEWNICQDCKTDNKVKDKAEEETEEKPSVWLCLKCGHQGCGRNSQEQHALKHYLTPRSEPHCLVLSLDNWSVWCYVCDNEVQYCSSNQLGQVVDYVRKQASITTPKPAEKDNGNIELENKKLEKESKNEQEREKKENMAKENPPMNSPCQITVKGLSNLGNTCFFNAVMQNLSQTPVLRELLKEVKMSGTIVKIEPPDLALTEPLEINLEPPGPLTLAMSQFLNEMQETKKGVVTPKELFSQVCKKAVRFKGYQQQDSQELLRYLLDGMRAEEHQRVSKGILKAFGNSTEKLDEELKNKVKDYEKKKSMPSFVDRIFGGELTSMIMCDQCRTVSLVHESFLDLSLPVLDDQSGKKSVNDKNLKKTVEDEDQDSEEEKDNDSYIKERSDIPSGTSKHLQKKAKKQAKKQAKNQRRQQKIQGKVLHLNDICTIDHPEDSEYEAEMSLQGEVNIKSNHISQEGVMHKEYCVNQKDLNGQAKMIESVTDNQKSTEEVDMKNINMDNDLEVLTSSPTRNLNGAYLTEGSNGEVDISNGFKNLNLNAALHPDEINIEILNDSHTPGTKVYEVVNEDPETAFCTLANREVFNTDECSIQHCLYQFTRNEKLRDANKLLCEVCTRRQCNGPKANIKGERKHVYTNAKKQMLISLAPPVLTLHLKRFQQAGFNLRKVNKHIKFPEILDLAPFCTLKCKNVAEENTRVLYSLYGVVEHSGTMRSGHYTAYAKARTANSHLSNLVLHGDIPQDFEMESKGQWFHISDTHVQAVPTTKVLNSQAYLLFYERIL
UniProt Q8IWV7: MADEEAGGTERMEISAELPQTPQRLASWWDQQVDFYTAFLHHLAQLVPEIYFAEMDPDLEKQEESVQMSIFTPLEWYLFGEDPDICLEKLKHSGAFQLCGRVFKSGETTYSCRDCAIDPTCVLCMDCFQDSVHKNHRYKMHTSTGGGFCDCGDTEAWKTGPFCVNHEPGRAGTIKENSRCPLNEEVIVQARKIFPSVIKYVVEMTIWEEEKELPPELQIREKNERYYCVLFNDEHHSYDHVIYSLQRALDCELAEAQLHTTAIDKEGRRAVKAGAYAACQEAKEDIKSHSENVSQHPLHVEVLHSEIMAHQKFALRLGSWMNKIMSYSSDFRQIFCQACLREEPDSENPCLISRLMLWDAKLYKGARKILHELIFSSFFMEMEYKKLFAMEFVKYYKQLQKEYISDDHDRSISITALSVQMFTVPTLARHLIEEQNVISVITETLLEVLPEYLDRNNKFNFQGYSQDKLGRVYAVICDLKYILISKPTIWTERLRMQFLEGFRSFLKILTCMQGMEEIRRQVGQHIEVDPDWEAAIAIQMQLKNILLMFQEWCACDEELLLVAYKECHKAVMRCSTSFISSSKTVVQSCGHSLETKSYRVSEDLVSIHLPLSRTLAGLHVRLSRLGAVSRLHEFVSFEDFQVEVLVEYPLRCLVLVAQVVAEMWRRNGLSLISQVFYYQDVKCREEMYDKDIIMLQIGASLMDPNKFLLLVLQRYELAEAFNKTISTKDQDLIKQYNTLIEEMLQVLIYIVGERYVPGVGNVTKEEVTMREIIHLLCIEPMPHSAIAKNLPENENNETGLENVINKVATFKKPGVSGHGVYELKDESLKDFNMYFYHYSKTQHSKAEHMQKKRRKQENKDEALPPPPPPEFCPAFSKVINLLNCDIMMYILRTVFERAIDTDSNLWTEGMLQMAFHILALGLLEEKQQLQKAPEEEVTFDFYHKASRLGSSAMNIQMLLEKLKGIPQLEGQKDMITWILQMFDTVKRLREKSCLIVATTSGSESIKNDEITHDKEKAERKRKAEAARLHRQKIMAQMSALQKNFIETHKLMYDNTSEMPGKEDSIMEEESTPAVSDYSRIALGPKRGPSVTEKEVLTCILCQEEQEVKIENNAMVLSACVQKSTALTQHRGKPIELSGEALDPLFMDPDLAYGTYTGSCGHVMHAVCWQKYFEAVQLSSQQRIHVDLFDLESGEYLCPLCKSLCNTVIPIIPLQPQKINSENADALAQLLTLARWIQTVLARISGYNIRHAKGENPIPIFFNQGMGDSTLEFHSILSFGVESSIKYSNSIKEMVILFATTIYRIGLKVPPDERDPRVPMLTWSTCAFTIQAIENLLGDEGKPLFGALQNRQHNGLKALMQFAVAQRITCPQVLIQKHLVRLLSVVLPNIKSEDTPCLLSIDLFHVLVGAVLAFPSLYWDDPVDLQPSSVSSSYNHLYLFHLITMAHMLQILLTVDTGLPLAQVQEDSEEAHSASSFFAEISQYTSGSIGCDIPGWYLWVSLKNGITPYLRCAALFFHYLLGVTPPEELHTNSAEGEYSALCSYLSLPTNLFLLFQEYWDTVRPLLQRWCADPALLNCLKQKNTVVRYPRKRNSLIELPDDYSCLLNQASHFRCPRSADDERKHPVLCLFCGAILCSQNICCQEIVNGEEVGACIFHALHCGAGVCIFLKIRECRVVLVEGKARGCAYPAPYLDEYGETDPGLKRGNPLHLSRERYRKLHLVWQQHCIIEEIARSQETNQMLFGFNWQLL

Compound in one test: COc1cc2nc(-c3cc(F)ccc3O)nc(N[C@@H]3CNC[C@H]3C(C)(C)O)c2cc1OC
Nature of the test: log2 fold change, soluble protein after heating vs DMSO (PISA); higher = thermal stabilisation; K562 cells, 10 uM, 30 min; active = over 0.2 and 3.5 SD of the protein, either way, in both replicates (recomputed). The gist of the method:
(§1)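 K562 cells at 2×10^6 cells/mL were exposed to 10 μM compound for 30 min, then aliquots were heated for 3 min across 48°C-58°C, pooled, and extracted in PBS containing 0.5% NP-40 at 4°C. The supernatant after 21,000xg for 90 min was taken as soluble protein and measured by TMTpro 16plex LC-MS/MS with channel sums equalised. Thermal stability is reported relative to control samples, with values from duplicates. Fold changes are given on a log2 scale.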
ULBP2 (UniProt Q9BZM5): the log2 fold change is inactive: 0.532.

For UPP1 (UniProt Q16831), the log2 fold change is inactive: -0.076.

With USB1 (UniProt Q9BQ65), the log2 fold change was inactive: 0.123.

For the target UFM1 isoform 2 (UniProt P61960), the log2 fold change was inactive: -0.085.

Take USP54 (UniProt Q70EL1): the log2 fold change is inactive: 0.

For the target UMAD1 (UniProt C9J7I0), the log2 fold change is inactive: -0.219.

For UBQLN3 (UniProt Q9H347), the log2 fold change was inactive: 0.145.

USF3 (UniProt Q68DE3): the log2 fold change was inactive: 0.155.

As for UBXN8 (UniProt O00124), the log2 fold change was inactive: -0.035.

In the case of USP11 (UniProt P51784), the log2 fold change was inactive: -0.093.

For UTP20 (UniProt O75691), the log2 fold change was inactive: -0.087.

For ULBP1 (UniProt Q9BZM6), the log2 fold change was inactive: 0.164.

With ULK3 isoform 4 (UniProt Q6PHR2), the log2 fold change is inactive: -0.136.

Regarding USP46 (UniProt P62068), the log2 fold change was inactive: -0.043.

Compound in the next test: COc1cc2ncnc(Nc3ccc(F)c(Cl)c3)c2cc1OCCCN1CCOCC1 [gefitinib]
Described as above. The method in brief:
as §1
VAMP3 (UniProt Q15836): the log2 fold change is inactive: -0.004.

Consider ULBP2 (UniProt Q9BZM5), for which the log2 fold change is inactive: 0.068.

UQCR11 (UniProt O14957): the log2 fold change was inactive: 0.299.

Regarding UGP2 (UniProt C9JWG0), the log2 fold change is inactive: 0.101.

For the target UTP18 (UniProt Q9Y5J1), the log2 fold change was inactive: -0.067.

Regarding UFM1 isoform 2 (UniProt P61960), the log2 fold change is inactive: 0.027.

Regarding UBN2 (UniProt Q6ZU65), the log2 fold change is inactive: -0.169.

With UMAD1 (UniProt C9J7I0), the log2 fold change was inactive: -0.146.

As to UBQLN3 (UniProt Q9H347), the log2 fold change was inactive: 0.008.

On to UQCC3 (UniProt Q6UW78), for which the log2 fold change was inactive: 0.186.

For USP16 (UniProt Q9Y5T5), the log2 fold change is inactive: 0.083.

Consider URB2 (UniProt Q14146), for which the log2 fold change is inactive: -0.107.

As for UTP23 (UniProt Q9BRU9), the log2 fold change is inactive: -0.224.

As to UBR1 (UniProt Q8IWV7), the log2 fold change is inactive: 0.027.

In the case of USP48 (UniProt Q86UV5), the log2 fold change was inactive: 0.053.

Compound in the next test: COc1cccc2cc(-c3nc([C@H]4CC[C@H](C(=O)O)CC4)n4ncnc(N)c34)[nH]c12
The test is described as above. The gist of the method: as §1
Take VAMP3 (UniProt Q15836): the log2 fold change is inactive: 0.162.

Regarding VAV1 (UniProt P15498), the log2 fold change was inactive: 0.089.

Regarding ULBP2 (UniProt Q9BZM5), the log2 fold change was inactive: 0.059.

For the target UQCR11 (UniProt O14957), the log2 fold change is inactive: 0.292.

With UGP2 (UniProt C9JWG0), the log2 fold change was inactive: 0.26.

In the case of UNG (UniProt P13051), the log2 fold change is inactive: -0.066.

Take UFM1 isoform 2 (UniProt P61960): the log2 fold change is inactive: 0.008.

In the case of USP54 (UniProt Q70EL1), the log2 fold change is inactive: 0.131.

As for UMAD1 (UniProt C9J7I0), the log2 fold change is inactive: 0.011.

Take USP12 (UniProt O75317): the log2 fold change is inactive: 0.264.

As for UBQLN3 (UniProt Q9H347), the log2 fold change was inactive: -0.453.

On to USF3 (UniProt Q68DE3), for which the log2 fold change is inactive: 0.223.

For UBQLN1 isoform 2 (UniProt Q9UMX0), the log2 fold change was inactive: 0.069.

Regarding USP11 (UniProt P51784), the log2 fold change was inactive: -0.48.

With USP16 (UniProt Q9Y5T5), the log2 fold change is inactive: -0.27.

As for ULBP1 (UniProt Q9BZM6), the log2 fold change is inactive: 0.001.

UBR1 (UniProt Q8IWV7): the log2 fold change is inactive: -0.031.

On to USP48 (UniProt Q86UV5), for which the log2 fold change is inactive: -0.031.

Compound in another test: CS(=O)(=O)CCNCc1ccc(-c2ccc3ncnc(Nc4ccc(OCc5cccc(F)c5)c(Cl)c4)c3c2)o1 [lapatinib]
The description is as above. The method in brief:
as §1
As for ULBP2 (UniProt Q9BZM5), the log2 fold change is inactive: 0.224.

For UPP1 (UniProt Q16831), the log2 fold change is inactive: 0.

For USB1 (UniProt Q9BQ65), the log2 fold change is inactive: -0.092.

In the case of UFM1 isoform 2 (UniProt P61960), the log2 fold change is inactive: -0.052.

For USP54 (UniProt Q70EL1), the log2 fold change is inactive: 0.109.

As for UMAD1 (UniProt C9J7I0), the log2 fold change was inactive: -0.109.

As to UBQLN3 (UniProt Q9H347), the log2 fold change is inactive: 0.035.

Regarding USF3 (UniProt Q68DE3), the log2 fold change is inactive: -0.332.

On to UBXN8 (UniProt O00124), for which the log2 fold change is inactive: 0.023.

For USP11 (UniProt P51784), the log2 fold change was inactive: 0.163.

On to UTP20 (UniProt O75691), for which the log2 fold change is inactive: 0.076.

On to ULBP1 (UniProt Q9BZM6), for which the log2 fold change was inactive: 0.002.

Turning to ULK3 isoform 4 (UniProt Q6PHR2), the log2 fold change was inactive: 0.057.

USP46 (UniProt P62068): the log2 fold change was inactive: 0.072.

Compound in a further test: CS(=O)(=O)N1CCN(Cc2cc3nc(-c4cccc5[nH]ncc45)nc(N4CCOCC4)c3s2)CC1 [pictilisib]
The test is described as above. The gist of the method: as §1
As to VAV1 (UniProt P15498), the log2 fold change is inactive: -0.068.

UQCR11 (UniProt O14957): the log2 fold change was inactive: -0.049.

Turning to UTP18 (UniProt Q9Y5J1), the log2 fold change is inactive: 0.091.

For UCHL1 (UniProt P09936), the log2 fold change is inactive: 0.075.

For UNG (UniProt P13051), the log2 fold change was inactive: -0.011.

For the target USB1 (UniProt Q9BQ65), the log2 fold change was inactive: -0.206.

For the target UFM1 isoform 2 (UniProt P61960), the log2 fold change is inactive: -0.062.

With USP54 (UniProt Q70EL1), the log2 fold change was inactive: -0.238.

Take UMAD1 (UniProt C9J7I0): the log2 fold change is inactive: 0.124.

For USP12 (UniProt O75317), the log2 fold change is inactive: 0.038.

As for UBQLN3 (UniProt Q9H347), the log2 fold change was inactive: 0.322.

For the target UBXN8 (UniProt O00124), the log2 fold change was inactive: -0.002.

UQCC3 (UniProt Q6UW78): the log2 fold change is inactive: -0.281.

As to USP11 (UniProt P51784), the log2 fold change is inactive: -0.064.

For USP16 (UniProt Q9Y5T5), the log2 fold change was inactive: 0.012.

As for VCPIP1 (UniProt Q96JH7), the log2 fold change was inactive: 0.357.

In the case of ULK3 isoform 4 (UniProt Q6PHR2), the log2 fold change was inactive: 0.056.

For the target UBR1 (UniProt Q8IWV7), the log2 fold change was inactive: 0.104.

These data come from the supplement of paper PMC10849652.
